According to PubChem BioAssay AID1439 (NMMLSC, 2008):
The campaign covered roughly 220,000 compounds. About 770 (0.35%) were called active. The shares of active, inactive and inconclusive entries below differ from those in the screen. Rule as the data show it: active = binding response below about 49% or above about 150%; inconclusive = no clear call, values can overlap the other calls; inactive = in between.

Sequences of proteins named here, by UniProt entry; tags and fusion partners are left off.
UniProt P09471, whole entry, looked up: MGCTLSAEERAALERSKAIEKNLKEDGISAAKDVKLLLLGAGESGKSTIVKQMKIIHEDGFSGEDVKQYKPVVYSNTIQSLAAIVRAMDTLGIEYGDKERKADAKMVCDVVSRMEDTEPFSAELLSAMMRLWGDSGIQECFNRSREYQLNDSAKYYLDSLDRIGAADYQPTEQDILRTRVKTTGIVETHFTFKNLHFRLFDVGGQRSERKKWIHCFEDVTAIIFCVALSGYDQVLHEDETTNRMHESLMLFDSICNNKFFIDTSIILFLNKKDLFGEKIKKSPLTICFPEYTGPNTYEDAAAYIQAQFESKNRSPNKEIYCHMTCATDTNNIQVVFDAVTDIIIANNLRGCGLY

Target: Guanine nucleotide-binding protein G(o) subunit alpha (Homo sapiens) (UniProt P09471)
Assay: RGS7-Galphao binding modulators, primary screen, biochemical, multiplexed bead flow cytometry (AID 1439);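 also: fluorescent Galphao held in activated GDP-AlF4 state binding bead-coupled RGS7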
Conditions: at 10 µM, actives lie on both sides

Structure (SMILES) | binding response (% of control)
Nc1nc(COc2ccccc2C=O)nc(Nc2ccccc2)n1 | inconclusive: 98.5%
O=C(CSc1nnc(-c2ccccc2)c(-c2ccccc2)n1)NC1CCS(=O)(=O)C1 (stereo not drawn) | inconclusive: 92.5%
Cc1ccc(OCCC(=O)O)cc1 | inconclusive: 205%
CCCCC(=O)Nc1ccccc1CC | inconclusive: 110%
Cc1cc(C)n(-c2nc(NCCCN(C)C)c3c4c(sc3n2)COC(C)(C)C4)n1 | inconclusive: 120%
O=[N+]([O-])c1ccc(Cl)c(/C=N/n2c(-c3ccncc3)n[nH]c2=S)c1 | inconclusive: 77.6%
CC(=O)c1sc(-c2ccc(F)cc2)cc1NS(=O)(=O)c1ccccc1 | inconclusive: 524%
CCN(CC)S(=O)(=O)c1cccc(-c2csc(C)n2)c1 | inconclusive: 99%
O=C(CC(c1ccccc1)c1ccccc1)Nc1nn[nH]n1 | inconclusive: 102%
COc1cccc(-n2nnc(S(=O)(=O)c3ccc(C)cc3)c2N)c1 | inconclusive: 117%
COc1cc(S(=O)(=O)NCCN2CCOCC2)ccc1-n1cnnn1 | inconclusive: 99.8%
CCOc1ccc(CC(=O)NNC(=S)NC)cc1Br | inconclusive: 76%
Cc1cc(Br)cc2c1NC(=O)C2(O)CC(=O)c1ccco1 (stereo not drawn) | inconclusive: 55.3%
Cn1cc([N+](=O)[O-])c(C(=O)NNC(=O)c2ccc([N+](=O)[O-])cc2)n1 | inactive: 105%
Cn1c(N)c(N=Nc2ccc(S(N)(=O)=O)cc2)c(=O)n(C)c1=O | inconclusive: -2.83%
O=C(C[n+]1ccc(/C=N/O)cc1)N(Cc1ccccc1)Cc1ccccc1 | inactive: 102%
O=S(=O)(NCCN1CCOCC1)c1cccs1 | inconclusive: 105%
NNC(=O)c1snnc1-c1ccccc1 | inconclusive: 115%
CCOC(=O)C1(Cc2ccc(Cl)cc2)CCN(Cc2cn(CC)nc2C)CC1 | inconclusive: 100%
OCCC1CN(Cc2cccc3nccnc23)CCN1Cc1ccc(F)cc1 (stereo not drawn) | inconclusive: 55.3%

A second format for part of the listing above.

| Structure (SMILES) | binding response (% of control) |
| --- | --- |
| CCN(CC)S(=O)(=O)c1cccc(-c2csc(C)n2)c1 | inconclusive: 99% |
| O=C(CC(c1ccccc1)c1ccccc1)Nc1nn[nH]n1 | inconclusive: 102% |
| COc1cccc(-n2nnc(S(=O)(=O)c3ccc(C)cc3)c2N)c1 | inconclusive: 117% |
| COc1cc(S(=O)(=O)NCCN2CCOCC2)ccc1-n1cnnn1 | inconclusive: 99.8% |
| CCOc1ccc(CC(=O)NNC(=S)NC)cc1Br | inconclusive: 76% |
| Cc1cc(Br)cc2c1NC(=O)C2(O)CC(=O)c1ccco1 (stereo not drawn) | inconclusive: 55.3% |
| Cn1cc([N+](=O)[O-])c(C(=O)NNC(=O)c2ccc([N+](=O)[O-])cc2)n1 | inactive: 105% |
| Cn1c(N)c(N=Nc2ccc(S(N)(=O)=O)cc2)c(=O)n(C)c1=O | inconclusive: -2.83% |
| O=C(C[n+]1ccc(/C=N/O)cc1)N(Cc1ccccc1)Cc1ccccc1 | inactive: 102% |
| O=S(=O)(NCCN1CCOCC1)c1cccs1 | inconclusive: 105% |
| NNC(=O)c1snnc1-c1ccccc1 | inconclusive: 115% |

(cont.)

Structure (SMILES) | binding response (% of control)
O=C(COC(=O)[C@@H]1CC(O)CN1S(=O)(=O)c1ccccc1[N+](=O)[O-])c1ccccc1 (stereo partly drawn) | inconclusive: 95.5%
Nc1ccc2nc3c(=O)[nH]c(=S)[nH]c3nc2c1 | inconclusive: 29%
Cc1nc2ccccn2c1C(=O)N/N=C/c1ccc([N+](=O)[O-])cc1 | inconclusive: 102%
O=C(NC(=S)N1CCN(c2ccc([N+](=O)[O-])cc2)CC1)c1ccccc1 | inconclusive: 90.4%
CCCNC(=O)[C@H](C)NC(=O)c1ccc(Br)cc1 | inconclusive: 82.7%
NC(=O)Nc1cc(Cl)ccc1Cl | inconclusive: 62.4%
Cc1cc(NC(=O)CC2(CC(=O)O)CCCC2)n(C)n1 | inconclusive: 99.6%
CN(C)c1ccc(N=Nc2cccc3ccoc23)cc1 | inconclusive: -140%
C/C(Cc1ccccc1)=N\NC(=O)CNC(=O)Cc1ccccc1 | inconclusive: 26.5%
O=Cc1ccc(-n2cc(C=O)c3ccccc32)cc1 | inconclusive: 106%
O=S(=O)(Nc1ccc(S(=O)(=O)Nc2cccc3ccccc23)cc1)c1ccccc1 | inactive: 91.7%
O=S(=O)(Nc1cccc(CCc2ccccn2)c1)c1cc(Cl)ccc1Cl | inconclusive: 94.6%
O=C(NC(=S)Nc1ccccc1N1CCN(C(=O)c2ccccc2)CC1)c1cccs1 | inconclusive: 87.3%
Cc1n[nH]c(C)c1CCC(=O)N/N=C/c1c(C)[nH]c2ccccc12 | inconclusive: 129%
Cc1c(C(=O)Nc2ccccc2Cl)oc2ccc(S(=O)(=O)N3CCC4(CC3)OCCO4)cc12 | inactive: 103%
O=C(NCc1cccc(C(F)(F)F)c1)C1CC(c2cccc(F)c2)=NO1 (stereo not drawn) | inconclusive: 122%
CCC(C)NC(=O)NCc1ccccc1F (stereo not drawn) | inconclusive: 92.2%
COC(=O)c1sccc1NC(=O)C1CC(C)=C(C)CC1C(=O)O (stereo not drawn) | inconclusive: 80.1%
O=C(CSc1nc2ccccc2c2nc3ccccc3n12)NCc1ccco1 | inactive: 93.2%
Cc1ccc(/C=C2\SC(=S)N(CCCC(=O)NNC(=O)c3ccccc3O)C2=O)cc1 | inconclusive: 117%

Structure (SMILES) | binding response (% of control)
Cn1cccc1/C=N/NC(=O)C12CC3CC(CC(C3)C1)C2 | inactive: 102%
COc1ccc(N2C(=O)CC(NNc3nc4ccccc4s3)C2=O)cc1 (stereo not drawn) | inconclusive: 101%
COc1cc(C(=O)c2c(C)c(CCC#N)n3ccccc23)cc(OC)c1OC | inconclusive: 104%
CCO[C@@H]1OC(C(=O)NC2CC2)=C[C@H](c2ccc(Br)cc2)[C@H]1CCCO | inconclusive: 119%
CC(C)(C)c1ccc(/C=N/n2cnnc2)cc1 | inconclusive: 104%
CCOc1ccc(S(=O)(=O)N(C)c2ccc(OCC(=O)NCCc3ccc(OC)cc3)cc2)cc1 | inconclusive: 94.3%
Cc1nn(C(C)C(=O)N2CCN(c3ccccn3)CC2)c(=O)c2cc3occc3n12 (stereo not drawn) | inactive: 110%
COc1ccc(N2CC(O)=C(c3nc(-c4ccc(F)cc4)cs3)C2=N)cc1Cl | inconclusive: 88.6%
COc1cc(Br)cc(CNc2ccc(F)c([N+](=O)[O-])c2)c1O | inactive: 95.9%
Cc1ccc(-c2nc(=S)c3c(n2Cc2cccnc2)CC(C)(C)OC3)cc1 | inconclusive: 100%
COc1ccc(C=C2C(=O)OC(C)(C)OC2=O)cc1OC | inconclusive: 143%
CC12CN3CCN(CC(C3)/C1=N/N=C/c1cccc([N+](=O)[O-])c1)C2 | inconclusive: 133%
O=C(N=Nc1c(O)[nH]c2ccc(Br)cc12)c1cc(-c2cccc3ccccc23)n[nH]1 | inactive: 83.3%
Nc1nc(-c2cc3ccccc3o2)cs1 | inconclusive: 86.4%
O=C(CSc1cccc[n+]1[O-])Nc1cccc(S(=O)(=O)NC2=NCCCCC2)c1 | inconclusive: 111%
CC1Cc2ccccc2N1C1=CC(=O)CCC1 (stereo not drawn) | inactive: 98.8%
COc1cccc(CNC(=O)CCN2C(=S)NC(C)(C)CC2C)c1 (stereo not drawn) | inconclusive: 95.5%
O=Nc1c(O)n(Cc2cccc(Cl)c2)c2ccccc12 | inactive: 102%
